The list shows a part of the results.
Experiment: inhibitors of TNFa-induced NFkB p65 translocation, primary screen, imaging, HUVEC, MLSMR starter and 10KST1 sets (AID 438);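 note: compound added about 3h40 before a 20 min TNFalpha stimulation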
Details: HUVEC TNFa-induced p65 nuclear translocation, measured here: nuclei count (cytotoxicity indicator), at 2.08 µM
For `COP1(=S)c2c(C)nn(CCC#N)c2N=C(c2ccc(F)cc2)N1C` (stereo not drawn), the cell count was 454. Work on `O=C(COc1ccccc1)OC1CN2CCC1CC2` (stereo not drawn) yielded a cell count of 380. Compound `CP(=S)(Nn1cnnc1)Oc1ccccc1` (stereo not drawn) has a cell count of 497. For `Cc1ccc(C)c(NP(C)(=O)Oc2ccccc2)c1` (stereo not drawn), the cell count was 669. `Cc1cccc(OCC(=O)OC2CN3CCC2CC3)c1` (stereo not drawn) gave a cell count of 547. For `CCOP1(=S)c2c(C)nn(CCC#N)c2N=C(c2ccccc2F)N1C` (stereo not drawn), the cell count was 416. For `Cc1ccc(OCC(=O)OC2CN3CCC2CC3)cc1` (stereo not drawn), the cell count was 525. Work on `Cc1nn(-c2ccccc2)c2c1P(=O)(N1CCOCC1)N(C)C(c1ccccc1)=N2` (stereo not drawn) yielded a cell count of 419. `CP(=O)(Nc1ccc2c(c1)OCCO2)Oc1ccccc1` (stereo not drawn) gave a cell count of 418. With `O=P(Nc1nccs1)(c1ccccc1)c1ccccc1` the cell count was 714. For `CN(C)CCOC(=O)C(O)(c1ccccc1)C1CCCCC1` (stereo not drawn), the cell count was 613. In the case of `CP(=O)(Nc1ccccn1)Oc1ccccc1` (stereo not drawn), the cell count is reported as 252. Work on `CCN(CC)CC(O)COC(=O)C(O)(c1ccccc1)C1CCCCC1` (stereo not drawn) yielded a cell count of 670.

— PubChem BioAssay AID438 (Columbia University Molecular Screening Center, 2006)
